In the supplement of paper PMC12067093, “Discovery and optimisation of a covalent ligand for TRIM25 and its application to targeted protein ubiquitination” (Chemical Science, 2025):
The other results are listed elsewhere or left out.

Compound: CC1Cc2ccccc2N1C(=O)C1CCCN(C1)C(=O)CCl (mixture of isomers) [TRIM25 ligand 11 (diastereomer mixture)]
Experiment: probe-labelled cysteine peptide fold change vs DMSO (competition) (log2 fold change); higher = less target engagement (more negative = stronger competition)
Conditions: 50 µM; THP-1; incubation time: 4 h
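Also: competitive chemoproteomic profiling in live THP-1 cells with an iodoacetamide desthiobiotin (IA-DTB) probe, comparing probe-labelled peptide intensities in compound-treated cells against DMSO-treated controls.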

Q: For “PPP2R5C_Q13362_513_ALEAHCR (UniProt Q13362)”, which “probe-labelled cysteine peptide fold change” value is on record?
A: -0.119

Q: With “PREX1_Q8TCU6_1021_KPSLIGLDPEQGHLNPMSYTQHCITTMAAPSWK (UniProt Q8TCU6)” as the target, how does the “probe-labelled cysteine peptide fold change” value read?
A: -0.357

Q: “PPP1R9B_Q96SB3_270_ERCPAGQQPPQHR (UniProt Q96SB3)” was tested. Which “probe-labelled cysteine peptide fold change” value did it give?
A: -0.167

Q: Which “probe-labelled cysteine peptide fold change” value does the source give for “PPP6C_O00743_265_CGNIASIMVFK (UniProt O00743)” here?
A: 0.0584

Q: How did the “probe-labelled cysteine peptide fold change” value turn out when “PREPL_Q4J6C6_160_LDQPFIDCIR (UniProt Q4J6C6)” was run?
A: 0.0865

Q: “PPP6R3_Q5H9R7_830_LSTSQDAACK (UniProt Q5H9R7)” was tested. Which “probe-labelled cysteine peptide fold change” value did it give?
A: -0.219

Q: With “PPP4C_P60510_235_GAGYLFGSDVVAQFNAANDIDMICR (UniProt P60510)” as the target, how does the “probe-labelled cysteine peptide fold change” value read?
A: -0.148

Q: For “PPIP5K2_O43314_49_QIVVGICSMAK (UniProt O43314)”, which “probe-labelled cysteine peptide fold change” value is on record?
A: -0.209

Q: For “PREP_P48147_532_QNCFDDFQCAAEYLIK (UniProt P48147)”, which “probe-labelled cysteine peptide fold change” value is on record?
A: 0.0998

Q: Which “probe-labelled cysteine peptide fold change” value does the source give for “PPIP5K2_O43314_729_IPDIYDCIK (UniProt O43314)” here?
A: -0.0148

Q: How did the “probe-labelled cysteine peptide fold change” value turn out when “PRDX2_P32119_70_KLGCEVLGVSVDSQFTHLAWINTPR (UniProt P32119)” was run?
A: -0.0312

Q: Which “probe-labelled cysteine peptide fold change” value does the source give for “PPP2R1A_P30153_504+512_MTTLFCINVLSEVCGQDITTK (UniProt P30153)” here?
A: 0.222

Q: “PPIP5K1_Q6PFW1_675_VCDQVFALIENLTHQIR (UniProt Q6PFW1)” was tested. Which “probe-labelled cysteine peptide fold change” value did it give?
A: -0.021

Q: How did the “probe-labelled cysteine peptide fold change” value turn out when “PPP1R18_Q6NYC8_611_ALIVDESCR (UniProt Q6NYC8)” was run?
A: -0.185

Q: With “PPP6R3_Q5H9R7_844_CAAPRPPSSSPEQR (UniProt Q5H9R7)” as the target, how does the “probe-labelled cysteine peptide fold change” value read?
A: -0.0138

Q: For “PRDX2_P32119_172_LVQAFQYTDEHGEVCPAGWKPGSDTIKPNVDDSK (UniProt P32119)”, which “probe-labelled cysteine peptide fold change” value is on record?
A: 0.0191

Q: With “PPIP5K2_O43314_298_VCLAFK (UniProt O43314)” as the target, how does the “probe-labelled cysteine peptide fold change” value read?
A: 0.219

Q: For “PPP1R9B_Q96SB3_270_CPAGQQPPQHR (UniProt Q96SB3)”, which “probe-labelled cysteine peptide fold change” value is on record?
A: -0.0774

Q: How did the “probe-labelled cysteine peptide fold change” value turn out when “PPP3CB_P16298_162_GNHECR (UniProt P16298)” was run?
A: 0.158

Q: Which “probe-labelled cysteine peptide fold change” value does the source give for “PPP1R10_Q96QC0_463_VPWVCPR (UniProt Q96QC0)” here?
A: -0.298

Q: PPIG_Q13427_549_ECDITK (UniProt Q13427) was tested. Which “probe-labelled cysteine peptide fold change” value did it give?
A: -0.0717

Q: “PPP4R1_Q8TF05_117_AELMEQVPHIALFCQENRPSIPYAFSK (UniProt Q8TF05)” was tested. Which “probe-labelled cysteine peptide fold change” value did it give?
A: 0.0192

Q: “PPP4R1_Q8TF05_84_EVCDDERDCIAVLER (UniProt Q8TF05)” was tested. Which “probe-labelled cysteine peptide fold change” value did it give?
A: 0.0159

Q: How did the “probe-labelled cysteine peptide fold change” value turn out when “PREP_P48147_343_DVLEWIACVR (UniProt P48147)” was run?
A: 0.295

Q: How did the “probe-labelled cysteine peptide fold change” value turn out when “PREB_Q9HCU5_128_KCGAETQHEGLELR (UniProt Q9HCU5)” was run?
A: -0.0833

Q: For “PRDX1_Q06830_71+83_LNCQVIGASVDSHFCHLAWVNTPK (UniProt Q06830)”, which “probe-labelled cysteine peptide fold change” value is on record?
A: 0.16

Q: For “PREPL_Q4J6C6_184_IRTEDSEASTCVIIK (UniProt Q4J6C6)”, which “probe-labelled cysteine peptide fold change” value is on record?
A: 0.152

Q: “PREB_Q9HCU5_378_CQLHLLPSRR (UniProt Q9HCU5)” was tested. Which “probe-labelled cysteine peptide fold change” value did it give?
A: 0.318

Q: How did the “probe-labelled cysteine peptide fold change” value turn out when “PRDX1_Q06830_71_KLNCQVIGASVDSHFCHLAWVNTPK (UniProt Q06830)” was run?
A: 0.16

Q: “PPP1R12C_Q9BZL4_109_AVLDSTNADGISALHQACIDENLEVVR (UniProt Q9BZL4)” was tested. Which “probe-labelled cysteine peptide fold change” value did it give?
A: -0.0132

Q: How did the “probe-labelled cysteine peptide fold change” value turn out when “PRAME_P78395_188_EGACDELFSYLIEK (UniProt P78395)” was run?
A: -0.184

Q: Which “probe-labelled cysteine peptide fold change” value does the source give for “PPP6R3_Q5H9R7_37_ELMDEEDVLQECK (UniProt Q5H9R7)” here?
A: -0.131

Q: How did the “probe-labelled cysteine peptide fold change” value turn out when “PPP1R21_Q6ZMI0_516_AASGFISPLSAECMLQYK (UniProt Q6ZMI0)” was run?
A: -0.0801

Q: For “PRDX2_P32119_172_LVQAFQYTDEHGEVCPAGWKPGSDTIK (UniProt P32119)”, which “probe-labelled cysteine peptide fold change” value is on record?
A: 0.128

Q: How did the “probe-labelled cysteine peptide fold change” value turn out when “PPP6C_O00743_129_QITQVYGFYDECQTK (UniProt O00743)” was run?
A: 0.409

Q: With “PPP4C_P60510_266_CGNVAAILELDEHLQK (UniProt P60510)” as the target, how does the “probe-labelled cysteine peptide fold change” value read?
A: 0.112

Q: With “PPP2R1A_P30153_377_DNTIEHLLPLFLAQLKDECPEVR (UniProt P30153)” as the target, how does the “probe-labelled cysteine peptide fold change” value read?
A: -0.232

Q: “PPP1CB_P62140_201_IMRPTDVPDTGLLCDLLWSDPDKDVQGWGENDR (UniProt P62140)” was tested. Which “probe-labelled cysteine peptide fold change” value did it give?
A: -0.226

Q: With “PPM1A_P35813_72_YCCEHLLDHITNNQDFK (UniProt P35813)” as the target, how does the “probe-labelled cysteine peptide fold change” value read?
A: -0.154

Q: How did the “probe-labelled cysteine peptide fold change” value turn out when “PPP4R2_Q9NY27_296_QHCTEEDEEEDEEEEEESFMTSR (UniProt Q9NY27)” was run?
A: -0.445
